Binding data for 2 molecules are collected here from patent US20110165170A1.

The chains behind the UniProt entries cited, without tags or fusion partners. Residues count along the entry.
UniProt P10923, residues 17-294: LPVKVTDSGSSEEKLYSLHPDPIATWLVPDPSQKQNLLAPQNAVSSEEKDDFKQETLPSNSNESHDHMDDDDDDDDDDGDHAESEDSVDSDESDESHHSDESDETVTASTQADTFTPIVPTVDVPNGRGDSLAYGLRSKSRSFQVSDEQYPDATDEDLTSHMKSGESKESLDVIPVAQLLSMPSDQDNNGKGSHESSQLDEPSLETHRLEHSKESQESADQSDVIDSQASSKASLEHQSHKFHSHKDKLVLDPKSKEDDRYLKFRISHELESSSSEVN

No constants are given. Whether binding was seen depends on the method and setting. Some results given as binding are weak or reduced against the parent protein; the word gives no strength.

The experiment concerns the target endogenous mouse plasma Osteopontin (mouse) (UniProt P10923). The experiment can be described thus: in vivo complex formation: MDA-MB-435-Hal/Luc tumour-bearing SCID BALB/c mice dosed i.v. at 25 mg/kg; plasma treated overnight with Protein G magnetic beads to remove IgG-bound OPN; free versus total mouse OPN by commercial ELISA (R&D Systems). (In general: An ELISA detects its analyte on a solid surface through an enzyme-linked reagent.)

B1: MOR-6993 (full length human IgG2) (antibody, V domains shown)
VH: QVQLVESGGGLVQPGGSLRLSCAASGFTFTTSSMHWVRQAPGKGLEWVSRISSHGSNTYYADSVKGRFTISRDNSKNTLYLQMNSLRAEDTAVYYCARDMYRGVYGFALWGQGTLVTVSS
VL: DIELTQPPSVSVAPGQTARISCSGDAIRNYYVHWYQQKPGQAPVLVIYEDSDRPSGIPERFSGSNSGNTATLTISGTQAEDEADYYCQSYDKSNVVFGGGTKLTVLG
Consider B1, for which the binding entry is listed as “binds”.

B2: MOR-6990 (full length human IgG2) (antibody, V domains shown)
VH: QVQLVESGGGLVQPGGSLRLSCAASGFTFSNYVMHWVRQAPGKGLEWVSSIFGSGSDTYYADSVKGRFTISRDNSKNTLYLQMNSLRAEDTAVYYCARSASSGFGFAGYGIDSWGQGTLVTVSS
VL: DIELTQPPSVSVAPGQTARISCSGDSLRYYYAHWYQQKPGQAPVLVIYDDNKRPSGIPERFSGSNSGNTATLTISGTQAEDEADYYCQSWDLFHSSVFGGGTKLTVLG
On to B2, for which the binding result is “binds”.
